Laboratory results: PubChem BioAssay AID504774 (Drosophila RNAi Screening Center, 2011)
Screen: 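Genes required for cells to withstand methyl methanesulphonate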 (primary screen). System: Drosophila Kc167 cells. Reagents: long dsRNA against Drosophila genes, about 0.25 µg dsRNA per well. Timing: about 6 days: 3 days knock-down, then 3 days with or without MMS. Conditions: methyl methanesulphonate 0.004% (w/v) for 3 days after knock-down. Read-out: 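ATP-dependent luminescence as a measure of live cells in MMS-exposed wells, quantile normalised within each plate, with replicate values also given as a mean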. Reading the numbers: mean viability with MMS and viability with MMS: higher = more surviving cells after MMS.
In all, the deposit lists about 23,000 reagents; this is an unselected part of those with a known target gene and a result. 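Values are quantile-normalised luminescence on an arbitrary scale; higher means more cells surviving MMS.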 Further read-outs or replicates are left out here.

{"target gene": "IleRS-m (Isoleucyl-tRNA synthetase, mitochondrial)", "PubChem SID": "SID104190298", "mean viability with MMS": 3.61e6, "viability with MMS, replicate 1": 4.21e6}
{"target gene": "CG9447", "PubChem SID": "SID104184800", "mean viability with MMS": 3.51e6, "viability with MMS, replicate 1": 4.06e6}
{"target gene": "SmydA-4 (SET and MYND domain containing, arthropod-specific, member 4)", "PubChem SID": "SID104199182", "mean viability with MMS": 3.63e6, "viability with MMS, replicate 1": 4.04e6}
{"target gene": "SmydA-4 (SET and MYND domain containing, arthropod-specific, member 4)", "PubChem SID": "SID104201504", "mean viability with MMS": 3.72e6, "viability with MMS, replicate 1": 4.22e6}
{"target gene": "Pgant1 (Polypeptide N-Acetylgalactosaminyltransferase 1)", "PubChem SID": "SID104186887", "mean viability with MMS": 3.43e6, "viability with MMS, replicate 1": 3.97e6}
{"target gene": "Fcp3C (Follicle cell protein 3C)", "PubChem SID": "SID104198457", "mean viability with MMS": 3.56e6, "viability with MMS, replicate 1": 4.01e6}
{"target gene": "Agpat1 (1-Acylglycerol-3-phosphate O-acyltransferase 1)", "PubChem SID": "SID104199671", "mean viability with MMS": 3.66e6, "viability with MMS, replicate 1": 4.18e6}
{"target gene": "Agpat1 (1-Acylglycerol-3-phosphate O-acyltransferase 1)", "PubChem SID": "SID104199672", "mean viability with MMS": 3.57e6, "viability with MMS, replicate 1": 4.05e6}
{"target gene": "CG10383", "PubChem SID": "SID104181842", "mean viability with MMS": 3.47e6, "viability with MMS, replicate 1": 3.71e6}
{"target gene": "Fsn (F-box synaptic protein)", "PubChem SID": "SID104186667", "mean viability with MMS": 3.62e6, "viability with MMS, replicate 1": 4.15e6}
{"target gene": "CG13097", "PubChem SID": "SID104181991", "mean viability with MMS": 3.18e6, "viability with MMS, replicate 1": 3.51e6}
{"target gene": "Oamb (Octopamine receptor in mushroom bodies)", "PubChem SID": "SID104193225", "mean viability with MMS": 3.39e6, "viability with MMS, replicate 1": 3.86e6}
{"target gene": "Oamb (Octopamine receptor in mushroom bodies)", "PubChem SID": "SID104194912", "mean viability with MMS": 3.45e6, "viability with MMS, replicate 1": 3.83e6}
{"target gene": "Oamb (Octopamine receptor in mushroom bodies)", "PubChem SID": "SID104196555", "mean viability with MMS": 3.57e6, "viability with MMS, replicate 1": 3.90e6}
{"target gene": "CG5861", "PubChem SID": "SID104182699", "mean viability with MMS": 3.35e6, "viability with MMS, replicate 1": 3.77e6}
{"target gene": "CG11975", "PubChem SID": "SID104194244", "mean viability with MMS": 3.56e6, "viability with MMS, replicate 1": 3.96e6}
{"target gene": "CG5506", "PubChem SID": "SID104190303", "mean viability with MMS": 3.60e6, "viability with MMS, replicate 1": 4.14e6}
{"target gene": "CG13198", "PubChem SID": "SID104186115", "mean viability with MMS": 3.49e6, "viability with MMS, replicate 1": 3.94e6}
{"target gene": "Sfp53D (Seminal fluid protein 53D)", "PubChem SID": "SID104185417", "mean viability with MMS": 3.41e6, "viability with MMS, replicate 1": 3.96e6}
{"target gene": "svr (silver)", "PubChem SID": "SID104197085", "mean viability with MMS": 3.47e6, "viability with MMS, replicate 1": 3.94e6}
{"target gene": "svr (silver)", "PubChem SID": "SID104198633", "mean viability with MMS": 3.60e6, "viability with MMS, replicate 1": 4.03e6}
{"target gene": "Nagk (N-acetylglucosamine kinase)", "PubChem SID": "SID104195786", "mean viability with MMS": 3.55e6, "viability with MMS, replicate 1": 4.00e6}
{"target gene": "Traf-like (TNF-receptor-associated factor-like)", "PubChem SID": "SID104199686", "mean viability with MMS": 3.44e6, "viability with MMS, replicate 1": 4.00e6}
{"target gene": "Cpr60D (Cuticular protein 60D)", "PubChem SID": "SID104184284", "mean viability with MMS": 3.47e6, "viability with MMS, replicate 1": 4.08e6}
{"target gene": "Nepl7 (Neprilysin-like 7)", "PubChem SID": "SID104182287", "mean viability with MMS": 3.67e6, "viability with MMS, replicate 1": 4.11e6}
{"target gene": "CG44433", "PubChem SID": "SID104186309", "mean viability with MMS": 3.57e6, "viability with MMS, replicate 1": 4.18e6}
{"target gene": "CG44433", "PubChem SID": "SID104186310", "mean viability with MMS": 3.42e6, "viability with MMS, replicate 1": 3.83e6}
{"target gene": "CG18336", "PubChem SID": "SID104186126", "mean viability with MMS": 3.72e6, "viability with MMS, replicate 1": 4.25e6}
{"target gene": "CG7509", "PubChem SID": "SID104188388", "mean viability with MMS": 3.53e6, "viability with MMS, replicate 1": 3.95e6}
{"target gene": "CG6733", "PubChem SID": "SID104195895", "mean viability with MMS": 3.56e6, "viability with MMS, replicate 1": 3.90e6}
{"target gene": "CG18766", "PubChem SID": "SID104195728", "mean viability with MMS": 3.47e6, "viability with MMS, replicate 1": 3.96e6}
{"target gene": "CG33543", "PubChem SID": "SID104180176", "mean viability with MMS": 3.54e6, "viability with MMS, replicate 1": 3.98e6}
{"target gene": "CG33543", "PubChem SID": "SID104180177", "mean viability with MMS": 3.50e6, "viability with MMS, replicate 1": 3.99e6}
{"target gene": "CG1138", "PubChem SID": "SID104192322", "mean viability with MMS": 3.63e6, "viability with MMS, replicate 1": 4.09e6}
{"target gene": "CG5181", "PubChem SID": "SID104182617", "mean viability with MMS": 3.66e6, "viability with MMS, replicate 1": 4.22e6}

Only “mean viability with MMS”, for 6 of the entries above:
CG44433 [SID104186310]: 3.42e6
CG18336 [SID104186126]: 3.72e6
CG7509 [SID104188388]: 3.53e6
CG6733 [SID104195895]: 3.56e6
CG18766 [SID104195728]: 3.47e6
CG33543 [SID104180176]: 3.54e6
